Experimental data published in PubChem BioAssay AID504444 (National Center for Advancing Translational Sciences (NCATS), 2011).
Out of some 360,000 compounds screened, about 7,500 (2.1%) were called active. The shares of active, inactive and inconclusive entries below differ from those in the screen. Calls follow the shape of the dose curve; as a rule, active = well fitted inhibition curve with a large enough effect; inconclusive = small, poorly fitted or top-dose-only effect, or effect the other way; inactive = flat fitted curve, though single readings scatter. Where the call is inconclusive, the potency comes from a doubtful curve fit.

assay: Nrf2 qHTS screen for inhibitors; conditions: A549 ARE-Fluc reporter, luciferase luminescence, 18-24 h; activity change, negative = inhibition: at 46 µM (top of the series); also: nearly all actives have a fitted effect of over 60% in size
In short: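 A549 ARE_Fluc cells, 5000/well, 5% FBS OPTI-MEM; compounds in dose-response, 18-24 h at 37 °C/5% CO2; CellTiter-Fluor viability read (Ex 405/Em 525), then BugLite luciferase luminescence = Nrf2 activity.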
% is scaled to controls: 0 for no effect and ±100 for the full control effect; potency is read from the fitted curve at half-maximal effect.

| SMILES | Potency | activity change, negative = inhibition |
| --- | --- | --- |
| Cc1nn(-c2ccc(N3CCCCC3)nn2)c(C)c1CCC(=O)NCc1ccc(Cl)cc1 | inconclusive: 13 µM [falling, partial curve, poor fit] | – |
| O=S(=O)(Nc1nc2ccccc2nc1N1CCN(c2ccccn2)CC1)c1ccc(Cl)cc1 | inconclusive: 3.66 µM [falling, partial curve, poor fit] | – |
| COc1ccccc1-c1coc2cc(OC(=O)N3CCOCC3)ccc2c1=O | inconclusive: 29.1 µM [activator, single point] | – |
| CCc1ccc(-c2nc(CN3CCC(C(=O)NCc4ccccc4OC)CC3)c(C)o2)cc1 | – | inactive: 18.9% |
| O=C(Nc1nc(-c2ccc3ccccc3c2)cs1)C1CCN(S(=O)(=O)c2cccs2)CC1 | active: 5.17 µM | – |
| C=C(C)CNC(=O)CCc1nnc(C2(c3ccc(Cl)cc3)CCC2)o1 | – | inactive: 15.2% |
| CCc1ccc(NS(=O)(=O)c2ccc3[nH]cc(C(=O)N(C)Cc4ccco4)c(=O)c3c2)cc1 | inactive | – |
| Fc1ccccc1CSc1ncnc2c1ncn2C1CCCCO1 (centres undefined) | inconclusive: 3.66 µM [activator, full curve] | – |
| Cc1cc(/C=N/n2cnnc2)c(C)n1-c1ccc(Cl)cc1Cl | inconclusive: 29.1 µM [falling, single point] | – |
| c1ccc2c(c1)Nc1ccncc1S2 | active: 29.1 µM | – |
| O=C(/C=C/c1cccc([N+](=O)[O-])c1)c1cccs1 | inconclusive: 20.6 µM [activator, partial curve] | – |
| Nc1ccccc1C#Cc1ccc2[nH]ccc2c1 | inconclusive: 7.31 µM [activator, partial curve] | – |
| O=C1c2ccccc2C2=Nc3ccccc3SC(c3ccccc3F)C12 (centres undefined) | active: 23.1 µM | – |
| CC(=O)N[C@@H](C)c1nc2ccccc2n1CCCN1CCN(c2nc(-c3ccc(C)cc3)cs2)CC1 | inconclusive: 29.1 µM [falling, single point] | – |
| COc1ccc(-c2cc(C(=O)OCC(=O)c3c(N)n(C)c(=O)n(C)c3=O)c3ccccc3n2)cc1 | inconclusive: 7.31 µM [falling, partial curve, poor fit] | – |
| Cc1ccc(CNc2nccn(-c3cc(C)cc(C)c3)c2=O)cc1 | inconclusive: 29.1 µM [activator, partial curve, poor fit] | – |
| COc1ccc(C(=O)C2CCCN(S(=O)(=O)c3cccc(C)c3)C2)c(C)c1 (centres undefined) | inconclusive: 29.1 µM [falling, single point] | – |
| O=C(O)/C=C\C(=O)Nc1ccc(N2CCN(c3ccc(Cl)c(Cl)c3)CC2)cc1 | inconclusive: 20.6 µM [activator, single point] | – |
| Cn1c(SCc2ccccc2F)nc2cccnc21 | inconclusive: 0.366 µM [activator, full curve, poor fit] | – |
| COc1ccccc1/C=N/NC(=O)CO | inconclusive: 0.82 µM [activator, partial curve, poor fit] | – |
| O=C(NCc1ccc2c(c1)CCO2)Nc1ccccc1 | inconclusive: 2.31 µM [activator, full curve] | – |
| CCOC(=O)c1cccc(NC(=O)CCc2ccccc2)c1 | inconclusive: 25.9 µM [falling, partial curve, poor fit] | – |

| SMILES | Potency | activity change, negative = inhibition |
| --- | --- | --- |
| CC(=NCc1ccco1)c1c(C)[nH]n(-c2nc3ccccc3s2)c1=O | inconclusive: 16.4 µM [falling, single point] | – |
| Cc1[nH]nc2c1C(=O)CC(C)(C)C2 | inconclusive: 6.51 µM [activator, partial curve] | – |
| O=C(c1cccc2nc3ccccc3nc12)N1CCOCC1 | inconclusive: 1.84 µM [falling, partial curve, poor fit] | – |
| Cc1ccc(NS(=O)(=O)Cc2ccccc2)nc1 | inconclusive: 25.9 µM [activator, single point] | – |
| Cn1c(NCc2c[nH]c3ccccc23)nc2ccccc21 | inconclusive: 3.26 µM [activator, partial curve] | – |
| Cc1cccc2nc(CSc3nc4[nH]ncc4c(=O)n3-c3cccc(Cl)c3)cc(=O)n12 | inconclusive: 8.2 µM [falling, partial curve] | – |
| COc1ccc(Cl)cc1NC(=O)CN(C)C(=O)c1ccc(-n2cncn2)cc1 | – | inactive: 1.07% |
| Nc1ccc2c(c1Br)Cc1ccccc1-2 | inconclusive: 25.9 µM [activator, single point] | – |
| CCc1ccc(-n2nc(CO)c(C(=O)NCc3ccccc3OC)n2)cc1 | inconclusive: 9.2 µM [activator, partial curve, poor fit] | – |
| COCCCn1c(=O)c2sccc2n2c(CCCC(=O)NCc3ccc(F)cc3)nnc12 | inconclusive: 2.06 µM [activator, full curve, poor fit] | – |
| CC(=O)N1CCc2cc(NC(=O)c3ccc(C)cc3)ccc21 | inconclusive: 0.013 µM [activator, full curve, poor fit] | – |
| Cc1ccc(OCC(=O)Nc2ccc3c(c2)OCO3)c(C)c1 | inconclusive: 9.2 µM [activator, partial curve] | – |
| CCCCCCn1c(N2CCN(c3cccc(Cl)c3)CC2)nc2c1c(=O)[nH]c(=O)n2C | inconclusive: 20.6 µM [falling, single point] | – |
| Cc1ccc2[nH]c3c(=O)n(CC(=O)NCCc4ccc(Cl)cc4)ncc3c2c1 | inconclusive: 9.2 µM [activator, partial curve, poor fit] | – |
| N#Cc1nc(Nc2cc(F)cc(F)c2)c2ncn(C3CCCC3)c2n1 | inconclusive: 1.3 µM [activator, full curve] | – |
| O=C(NNC(=S)NC(=O)c1ccccc1)c1cccc([N+](=O)[O-])c1 | inconclusive: 0.58 µM [falling, full curve, poor fit] | – |
| COc1ccc(OC)c(Nc2nc(NCCCN(C)C)nc(N)c2[N+](=O)[O-])c1 | inconclusive: 13 µM [activator, partial curve, poor fit] | – |
| O=C(C1CCC(CNS(=O)(=O)c2cccc3nsnc23)CC1)N1CC=C(c2ccccc2)CC1 (centres undefined) | active: 20.6 µM | – |
| Cc1cc(C)n(CCc2nc3c4ccccc4nc(N4CCN(c5ccc(F)cc5)CC4)n3n2)n1 | – | inactive: -16.2% |
| COc1ccc(-c2ccc(CCC(=O)O)n2-c2ccc(Cl)cc2C)cc1 | – | inactive: -3.87% |
| O[C@@H]1CN(Cc2ccc(-n3cccn3)cc2)CC[C@H]1N1CCN(c2ccccc2F)CC1 | inconclusive: 11.6 µM [falling, partial curve] | – |
| COCCNC(=S)N(CCc1c(C)[nH]c2ccc(OC)cc12)Cc1ccco1 | inconclusive: 29.1 µM [falling, single point] | – |

| SMILES | Potency | activity change, negative = inhibition |
| --- | --- | --- |
| NC(=S)N/N=C/c1ccccc1OC(=O)/C=C/c1ccccc1 | – | inactive: 0.0863% |
| CCOC(=O)c1cccc(NC(=O)CCc2c(C)nn(-c3ccc(N4CCOCC4)nn3)c2C)c1 | inconclusive: 29.1 µM [activator, single point] | – |
| C=CCn1c(SCc2ccccc2Cl)nnc1-c1sc2nc(C)cc(C)c2c1N | – | inactive: 1.35% |
| Cc1cc(/C=N/n2cnnc2)c(C)n1-c1cc(Cl)ccc1Cl | inconclusive: 16.4 µM [falling, partial curve, poor fit] | – |
| O=C(CN1CCN(Cc2ccccc2Cl)C1=O)NC1CCCCCC1 | inconclusive: 23.1 µM [activator, partial curve, poor fit] | – |
| Cc1cc(C)cc(NC(=O)CCC(=O)N2CCSc3ccccc32)c1 | inactive | – |
| COc1cc(OC)c(OC)cc1CNC(=O)c1cc(S(=O)(=O)N(C)c2ccccc2OC)ccc1C | inconclusive: 23.1 µM [falling, single point] | – |
| N=c1c2c(n(Cc3cccc(Cl)c3)c3c1CCC3)CCCC2 | inconclusive: 16.4 µM [falling, single point] | – |
| CCOc1ccc(S(=O)(=O)N(C)c2ccc(OCC(=O)NCCc3ccc(OC)cc3)cc2)cc1 | inconclusive: 8.2 µM [falling, partial curve, poor fit] | – |
| NS(=O)(=O)c1cccc(NC(=O)CSc2nc3ccccc3c(=O)n2Cc2ccco2)c1 | inconclusive: 14.6 µM [falling, partial curve, poor fit] | – |
| Cc1cccc(C)c1NC1=C(Cl)C(=O)OC1OC(C)C (centres undefined) | inconclusive: 6.51 µM [falling, single point] | – |
| O=C1C2C3C=CC(C3)C2C(=O)N1c1ccc(-c2nc3ccccc3o2)cc1 (centres undefined) | inconclusive: 1.46 µM [activator, full curve] | – |
| COc1ccc(CCNC(=O)Cc2c(C)c3cc4c(C)coc4c(C)c3oc2=O)cc1 | – | inactive: 22% |
| COc1ccccc1CNC(=O)CN(Cc1ccc(Cl)cc1)S(C)(=O)=O | inconclusive: 20.6 µM [falling, partial curve, poor fit] | – |
| CCCC(C)NC(=O)CN(Cc1ccco1)S(=O)(=O)c1ccccc1 (centres undefined) | – | inactive: -15.9% |
| COc1ccc(C)cc1NC(=O)C1CCN(S(=O)(=O)c2ccc3c(c2)NC(=O)CO3)CC1 | inconclusive: 11.6 µM [falling, partial curve, poor fit] | – |
| Cc1ccc(NC(=O)C2CCN(c3nnc(C)c4c(C)n(-c5ccccc5)nc34)CC2)cc1Cl | inconclusive: 18.4 µM [activator, partial curve, poor fit] | – |
| Cc1ccc(OCCCSc2nc(-c3ccc(C(C)(C)C)cc3)nc3cc(=O)[nH]n23)cc1C | inconclusive: 29.1 µM [falling, single point] | – |
| Nc1nc(-c2cc3ccccc3o2)cs1 | inconclusive: 9.2 µM [activator, partial curve] | – |
| CCOC(=O)c1[nH]c2ccc(OC)cc2c1NC(=O)c1ccccc1C(=O)O | inconclusive: 32.6 µM [activator, single point] | – |

Pulled by compound from above, six records:

| SMILES | Potency | activity change, negative = inhibition |
| --- | --- | --- |
| COCCCn1c(=O)c2sccc2n2c(CCCC(=O)NCc3ccc(F)cc3)nnc12 | inconclusive: 2.06 µM [activator, full curve, poor fit] | – |
| O=C(c1cccc2nc3ccccc3nc12)N1CCOCC1 | inconclusive: 1.84 µM [falling, partial curve, poor fit] | – |
| O=S(=O)(Nc1nc2ccccc2nc1N1CCN(c2ccccn2)CC1)c1ccc(Cl)cc1 | inconclusive: 3.66 µM [falling, partial curve, poor fit] | – |
| CC(=O)N1CCc2cc(NC(=O)c3ccc(C)cc3)ccc21 | inconclusive: 0.013 µM [activator, full curve, poor fit] | – |
| Cc1ccc(CNc2nccn(-c3cc(C)cc(C)c3)c2=O)cc1 | inconclusive: 29.1 µM [activator, partial curve, poor fit] | – |
| O=C1c2ccccc2C2=Nc3ccccc3SC(c3ccccc3F)C12 (centres undefined) | active: 23.1 µM | – |
